From US20210253679A1 (NATIONAL RESEARCH COUNCIL OF CANADA, published 2021)
These are yes or no findings as the source states them, for the method shown. Some results given as binding are weak or reduced against the parent protein; the word gives no strength.

Chains of the proteins cited; added tags and fusions are not shown. Residues count along the entry.
UniProt P02768, residues 213-409: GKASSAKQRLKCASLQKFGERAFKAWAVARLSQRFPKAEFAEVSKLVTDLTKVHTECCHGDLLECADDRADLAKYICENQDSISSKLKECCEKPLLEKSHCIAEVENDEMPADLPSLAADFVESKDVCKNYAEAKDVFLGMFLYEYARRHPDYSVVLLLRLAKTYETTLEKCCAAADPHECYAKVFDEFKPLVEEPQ

B1: R28 sdAb (VHH)
VHH: QVQLVESGGGLVQAGGSLRLSCVASGRTFIAYAMGWFRQAPGKEREFVAAITNFAGGTTYYADSVKGRFTISRDNAKTTVYLQMNSLKPEDTALYYCAADRSAQTMRQVRPVLPYWGQGTQVTVSS
notes: also called R28 VHH
B2: R11 sdAb (VHH)
VHH: QVKLEESGGGLVQAGGSLRLSCVGPGFLLRSNTMGWYRQAPGKERELVAFIRPSGLTNYNDAVQGRFTISRDNAKNTVYLQMNALKPEDTAVYYCHTRPPFQRDSWGQGTQVTVSS
notes: also called R11 VHH
B3: M79 sdAb (VHH)
VHH: QVKLEESGGGLVQAGGSLKLSCAASGSTFSSSSVGWYRQAPGQQRELVAAITSGGSTNTADSVKGRFTMSRDNAKNTVYLQMRDLKPEDTAVYYCNVAGRNWVPISRYSPGPYWGQGTQVTVSS
notes: also called M79 VHH

Target: T1, HSA domain 2 (DII) (human, UniProt P02768 213-409)
T1 construct: domain: DII
Assay: SPR over HSA domain surfaces

Q: For B1, which binding is on record?
A: binds

Q: With B2 as the binder, how does the binding read?
A: binds

Q: How did the binding turn out when B3 was run?
A: binds

Target: T1, HSA domain 2 (DII)
Assay: SPR, 100 nM VHH over HSA domain surfaces

Q: Which binding does the source give for B1 here?
A: binds

Q: B2 was tested. Which binding did it give?
A: binds

Q: For B3, which binding is on record?
A: binds

Target: T1, HSA domain 2 (DII)
Assay: SPR, 100 nM VHH over an amine-coupled DII surface

Q: B1 was tested. Which binding did it give?
A: binds

Q: With B2 as the binder, how does the binding read?
A: binds

Q: How did the binding turn out when B3 was run?
A: binds
